Results: PubChem BioAssay AID256 (DTP/NCI, 2004)
The list does not hold the whole screen: it is rich in T/C values a quarter to a half above the control, in often repeated tests (any T/C) and in doses without a T/C. Further doses and runs are listed elsewhere. T/C gives the treated animals as a percentage of the vehicle group. Some entries give survivors of the animals treated and no T/C: the source holds a T/C of zero for them, seemingly a mark for toxic or unscored doses. Some doses without a T/C left all or most animals alive at the check, yet need not have been tolerated: the source hardly ever lists a survival T/C far under the control, and the zero likely stands for such cases as well. Counts of survivors are from the toxicity check (mostly the fifth day) where no day follows; animals may have died later. Schedules are NCI's codes, taken here to give the interval after Q, in days (D) or hours (H), and the number of doses after X. For survival time, the PubChem record calls one and a half times the control and up active, and a quarter to a half above the control has no call in these data; cut-offs in other NCI protocols can differ.

System: CD2F1 mice, L1210 leukemia ip, survival T/C
Assay: NCI In Vivo Anticancer Drug Screen. Data for tumor model L1210 Leukemia (intraperitoneal) in CD2F1 (CDF1) mice
Conditions: higher T/C = longer survival
Procedure, shortened: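 Compound-dosed mice with transplantable tumor versus matched vehicle controls; endpoint ratio T/C reported.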

[1] = T/C endpoint: mean survival time, dose: 200.0 mg/kg/injection, schedule: Q01DX001 (ip), vehicle: saline
[2] = T/C endpoint: mean survival time, dose: 400.0 mg/kg/injection, schedule: Q01DX001 (ip), vehicle: saline

C[n+]1c(/C=C\c2ccc(Cl)cc2)ccc2ccccc21
survivor count (T/C endpoint: mean survival time, dose: 12.5 mg/kg/injection, schedule: Q01DX009 (ip), vehicle: saline with Tween-80): 3 of 6
survivor count (T/C endpoint: mean survival time, dose: 25.0 mg/kg/injection, schedule: Q04DX003 (ip), vehicle: saline with Tween-80): 4 of 6
survivor count (T/C endpoint: mean survival time, dose: 50.0 mg/kg/injection, schedule: Q04DX003 (ip), vehicle: saline with Tween-80): 4 of 6
survivor count (T/C endpoint: mean survival time, dose: 100.0 mg/kg/injection, schedule: Q04DX003 (ip), vehicle: saline with Tween-80): 2 of 6
survivor count (T/C endpoint: mean survival time, dose: 200.0 mg/kg/injection, schedule: Q04DX003 (ip), vehicle: saline with Tween-80): 0 of 6

CCC12CN3CCc4c([nH]c5ccccc45)C(C(=O)OC)(c4cc5c(cc4OC)N(C)C4C(O)(C(=O)OC)C(OC(C)=O)C6(CC)C=CCN7CCC54C76)CC(C3)C1O2.CI.CO.[I][Hg][I] (stereo unspecified)
survivor count [1]: 1 of 6
survivor count [2]: 0 of 6

CC(=O)N(Cc1ccccn1)N=O
survivor count (T/C endpoint: mean survival time, dose: 300.0 mg/kg/injection, schedule: Q01DX001 (ip), vehicle: water): 0 of 6

CS(=O)(=O)c1nnc(-c2ccccc2)s1
survivor count (T/C endpoint: mean survival time, dose: 400.0 mg/kg/injection, schedule: Q04DX003 (ip), vehicle: Klucel (hydroxypropylcellulose) (HPC)): 6 of 6

O=C(c1ccc(-c2ccccc2)cc1)C(Br)C(Br)c1ccccc1 (stereo unspecified)
survivor count (T/C endpoint: mean survival time, dose: 25.0 mg/kg/injection, schedule: Q01DX009 (ip), vehicle: water): 6 of 6

COc1ccc2nc3cc(Cl)ccc3c(Nc3ccc(NS(C)(=O)=O)cc3)c2n1
survivor count (T/C endpoint: mean survival time, dose: 200.0 mg/kg/injection, schedule: Q01DX009 (ip), vehicle: other): 6 of 6

C[N+](C)(Cc1ccccc1)c1ccccc1
survivor count (T/C endpoint: mean survival time, dose: 40.0 mg/kg/injection, schedule: Q01DX009 (ip), vehicle: saline): 0 of 6

COC(=O)C1C(O)C(C)C(O)OC1C(C)C(O)C(C)/C=C\C=C(/C)C(=O)Nc1c(C)c(OC(C)=O)c2c(c1O)C(=O)C(C)=C1OCOC(/C(C)=C/C(C)=O)=C12 (stereo unspecified)
survivor count (T/C endpoint: mean survival time, dose: 400.0 mg/kg/injection, schedule: Q01DX009 (ip), vehicle: saline): 3 of 6

ClC1(Cl)Cc2ccccc21
survivor count (T/C endpoint: median survival time, dose: 400.0 mg/kg/injection, schedule: Q01DX005 (ip), vehicle: saline with Tween-80): 4 of 6
survivor count (T/C endpoint: median survival time, dose: 800.0 mg/kg/injection, schedule: Q01DX005 (ip), vehicle: saline with Tween-80): 0 of 6

O=C1OC2CC3CCC2C13 (stereo unspecified)
survivor count (T/C endpoint: mean survival time, dose: 100.0 mg/kg/injection, schedule: Q01DX001 (ip), vehicle: saline): 0 of 6
survivor count [1]: 0 of 6
survivor count [2]: 0 of 6

NC(=O)c1ccc[n+](CCN(CCCl)c2ccc3ccccc3c2)c1
survivor count (T/C endpoint: mean survival time, dose: 10.0 mg/kg/injection, schedule: Q01DX009 (ip), vehicle: Klucel (hydroxypropylcellulose) (HPC)): 1 of 6
survivor count (T/C endpoint: mean survival time, dose: 20.0 mg/kg/injection, schedule: Q01DX009 (ip), vehicle: Klucel (hydroxypropylcellulose) (HPC)): 1 of 6
survivor count (T/C endpoint: mean survival time, dose: 40.0 mg/kg/injection, schedule: Q01DX009 (ip), vehicle: Klucel (hydroxypropylcellulose) (HPC)): 0 of 6

CC1CC2CCC1(CO)CN2 (stereo unspecified)
survivor count (T/C endpoint: mean survival time, dose: 75.0 mg/kg/injection, schedule: Q01DX001 (ip), vehicle: saline): 0 of 6
survivor count (T/C endpoint: mean survival time, dose: 150.0 mg/kg/injection, schedule: Q01DX001 (ip), vehicle: saline): 0 of 6
survivor count (T/C endpoint: mean survival time, dose: 300.0 mg/kg/injection, schedule: Q01DX001 (ip), vehicle: saline): 0 of 6

C1OC1CN1CCN(CC2CO2)CC1 (stereo unspecified)
T/C (T/C endpoint: mean survival time, dose: 8.0 mg/kg/injection, schedule: Q03HX008 (ip), vehicle: saline): 126 % of control
T/C (T/C endpoint: mean survival time, dose: 8.0 mg/kg/injection, schedule: Q03HX016 (ip), vehicle: saline): 131 % of control
T/C (T/C endpoint: mean survival time, dose: 8.0 mg/kg/injection, schedule: Q03HX024 (ip), vehicle: saline): 135 % of control
T/C (T/C endpoint: mean survival time, dose: 16.0 mg/kg/injection, schedule: Q01DX009 (ip), vehicle: saline): 132 % of control
T/C (T/C endpoint: mean survival time, dose: 16.0 mg/kg/injection, schedule: Q01DX009 (sc), vehicle: saline): 126 % of control
survivor count (T/C endpoint: mean survival time, dose: 16.0 mg/kg/injection, schedule: Q03HX008 (ip), vehicle: saline): 5 of 10
survivor count (T/C endpoint: mean survival time, dose: 16.0 mg/kg/injection, schedule: Q03HX016 (ip), vehicle: saline): 6 of 10
survivor count (T/C endpoint: mean survival time, dose: 16.0 mg/kg/injection, schedule: Q03HX024 (ip), vehicle: saline): 7 of 10
T/C (T/C endpoint: mean survival time, dose: 32.0 mg/kg/injection, schedule: Q01DX001 (ip), vehicle: saline): 125 % of control
T/C (T/C endpoint: mean survival time, dose: 32.0 mg/kg/injection, schedule: Q01DX009 (sc), vehicle: saline): 140 % of control
survivor count (T/C endpoint: mean survival time, dose: 32.0 mg/kg/injection, schedule: Q03HX008 (ip), vehicle: saline): 5 of 10
survivor count (T/C endpoint: mean survival time, dose: 32.0 mg/kg/injection, schedule: Q03HX016 (ip), vehicle: saline): 3 of 10
survivor count (T/C endpoint: mean survival time, dose: 32.0 mg/kg/injection, schedule: Q03HX024 (ip), vehicle: saline): 4 of 10
T/C (T/C endpoint: mean survival time, dose: 32.0 mg/kg/injection, schedule: Q04DX003 (ip), vehicle: saline): 149 % of control
T/C (T/C endpoint: mean survival time, dose: 64.0 mg/kg/injection, schedule: Q01DX009 (oral), vehicle: saline): 139 % of control
T/C (T/C endpoint: mean survival time, dose: 128.0 mg/kg/injection, schedule: Q01DX001 (oral), vehicle: saline): 138 % of control
T/C (T/C endpoint: mean survival time, dose: 128.0 mg/kg/injection, schedule: Q01DX001 (sc), vehicle: saline): 125 % of control
survivor count (T/C endpoint: mean survival time, dose: 128.0 mg/kg/injection, schedule: Q01DX009 (ip), vehicle: saline): 5 of 10
survivor count (T/C endpoint: mean survival time, dose: 128.0 mg/kg/injection, schedule: Q01DX009 (oral), vehicle: saline): 8 of 10
survivor count (T/C endpoint: mean survival time, dose: 128.0 mg/kg/injection, schedule: Q01DX009 (sc), vehicle: saline): 9 of 10
survivor count (T/C endpoint: mean survival time, dose: 256.0 mg/kg/injection, schedule: Q01DX001 (ip), vehicle: saline): 4 of 10
survivor count (T/C endpoint: mean survival time, dose: 256.0 mg/kg/injection, schedule: Q01DX001 (oral), vehicle: saline): 5 of 10
survivor count (T/C endpoint: mean survival time, dose: 256.0 mg/kg/injection, schedule: Q01DX001 (sc), vehicle: saline): 8 of 10
survivor count (T/C endpoint: mean survival time, dose: 256.0 mg/kg/injection, schedule: Q01DX009 (oral), vehicle: saline): 8 of 10
survivor count (T/C endpoint: mean survival time, dose: 256.0 mg/kg/injection, schedule: Q04DX003 (ip), vehicle: saline): 9 of 10
survivor count (T/C endpoint: mean survival time, dose: 256.0 mg/kg/injection, schedule: Q08DX002 (ip), vehicle: saline): 8 of 10
survivor count (T/C endpoint: mean survival time, dose: 512.0 mg/kg/injection, schedule: Q01DX001 (oral), vehicle: saline): 6 of 10
survivor count (T/C endpoint: mean survival time, dose: 512.0 mg/kg/injection, schedule: Q01DX009 (oral), vehicle: saline): 6 of 10
survivor count (T/C endpoint: mean survival time, dose: 1024.0 mg/kg/injection, schedule: Q01DX001 (oral), vehicle: saline): 6 of 10

O=C(OCc1ccccc1)c1cc([N+](=O)[O-])c(Cl)c([N+](=O)[O-])c1
survivor count (T/C endpoint: mean survival time, dose: 400.0 mg/kg/injection, schedule: Q01DX009 (ip), vehicle: saline with Tween-80): 3 of 6

CCCCNC(=O)Nc1cccc2c(O)cccc12
survivor count (T/C endpoint: mean survival time, dose: 100.0 mg/kg/injection, schedule: Q01DX009 (ip), vehicle: DMSO): 0 of 3
survivor count (T/C endpoint: mean survival time, dose: 200.0 mg/kg/injection, schedule: Q01DX009 (ip), vehicle: DMSO): 2 of 3
